Assay results published in patent US20180037649A1 (OSAKA UNIVERSITY, published 2018).

What was measured:
Experiment in all cases: co-IP with anti-FLAG antibody from X293T/Dkk1-FLAG cell lysate, immunoblot with anti-HA antibody
[1] = molecular target: deletion mutant CKAP4-HA ΔC1
[2] = molecular target: deletion mutant CKAP4-HA ΔC2
[3] = molecular target: deletion mutant CKAP4-HA ΔC3

B1: Dkk1-FLAG (wild-type human Dkk1 tagged with FLAG at the C-terminal) (ligand, UniProt O94907 32-266, looked up)
chain: TLNSVLNSNAIKNLPPPLGGAAGHPGSAVSAAPGILYPGGNKYQTIDNYQPYPCAEDEECGTDEYCASPTRGGDAGVQICLACRKRRKRCMRHAMCCPGNYCKNGICVSSDQNHFRGEIEETITESFGNDHSTLDGYSRRTTLSSKMYHTKGQEGSVCLRSSDCASGLCCARHFWSKICKPVLKEGQVCTKHRRKGSHGLEIFQRCYCGEGLSCRIQKDHHQASNSSRLHTCQRH
notes: Expressed in MDCK or X293T cells; pulled down from cell lysates with an anti-FLAG antibody; also called WT-FLAG; wild-type Dkk1-FLAG (WT); not shown: FLAG tag at the C-terminal
binding [1]: binds
binding [2]: no binding
binding [3]: no binding

These are yes or no findings as the source states them, for the method shown. In cells and extracts the contact can be indirect. For part of these data: Binding can be weak; no strength is given. Tags and fused reporters may be left off the sequences shown.
